# Test results from patent publication US7273878B2, “Difluoroalkene derivative, pest control agent containing the same, and intermediate therefor” (Kumiai Chemical Industry Co., Ltd., priority 2001, dated 2007).
# Some entries share one result that the patent states for a list of compounds. At least one compound was matched to its structure with a doubt left.
# How the values were obtained:
# [1] = tested on: Nilaparvata lugenis; experiment: Insecticidal test for Nilaparvata lugenis; format: in vivo; details: 500 ppm active ingredient (wettable powder), 4-instar larvae on germinated rice paddy, 25° C., after 6 days
# Method: The wettable powder prepared according to the above Preparation Example 2 was diluted with water to a concentration of 500 ppm as a concentration of active ingredient. After soaking the germinated rice paddy in the test solution, the paddy was transferred into a 60 ml volume of plastic cup. Ten (10) heads of 4-instar larvae of Nilaparvata lugenis were inoculated on the paddy and capped, then left at the constant temperature of 25° C. After 6 days from the inoculation, the number of surviving insects was counted, and mortality rate of the insect was calculated according to the following formula 1. mortality rate (%)=[(10−number of surviving insect in the test field)/10]×100 (1)
# [2] = tested on: Tetranychus urticae; experiment: Prevention/extermination test against Tetranychus urticae (500 ppm); format: in vivo; details: 500 ppm active ingredient, soybean seedlings inoculated with imago, 25° C., after 13 days
# Method: The wettable powder prepared according to the above Preparation Example 2 was diluted with water to a concentration of 500 ppm as a concentration of active ingredient. Soybean seedlings which had previously been inoculated with the imago of Tetranychus urticae were soaked in the test solution, then air dried. The treated soybean seedlings were left at the constant temperature of 25° C. After 13 days from the treatment, the number of surviving mites was counted, and the prevention/extermination titer was calculated according to the formula 2 below.
# In this test, representative compounds having the acaricidal effect with more than 90 of prevention/extermination titer include compound No. 63, 93, 77, 81, 105, 169, 190, 196 and 208.
SMILES,mortality rate [1] [%],prevention/extermination titer (preventive titer) [2]
"CC(CCCCOC(=O)c1ccc2c(ccn2C)c1)=C(F)F [Compound 16, 6,6-difluoro-5-methyl-5-hexenyl 1-methyl-1H-indrole-5-carboxylate]",≥ 90,more than 90
"CC(CCCCOC(=O)c1nc2nc(C)cc(C)n2n1)=C(F)F [Compound 34, 6,6-difluoro-5-methyl-5-hexenyl 5,7-dimethyl [1,2,4]-triazolo[1,5-a]pyrimidine-2-carboxylate]",≥ 90,–
"COc1nc(OC)nc(C(=O)OCCCCC(C)=C(F)F)n1 [Compound 23, 6,6-difluoro-5-methyl-5-hexenyl 4,6-dimethoxy [1,3,5]-triazine-2-carboxylate]",≥ 90,–
